# Laboratory results published in PubChem BioAssay (NCATS).
# Some of the results follow. These are further read-outs of the screen, such as a control signal, another cell line or another target. No call is given for them. Compounds called inactive in the main read-out are mostly missing here. Potencies come from curve fits of mixed quality, noted in brackets.
# Assay: NCATS anti-infectives library activity on the primary C. elegans qHTS viability assay (AID 1745855)
# Settings: C. elegans worm area imaging, day 7; measured here: worm area, day 3
# Outline: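 GFP read-out by 488 nm laser cytometry at day 0, 3 and 7, gated on object perimeter, area and peak intensity, scored viability of PE254-GFP-FLuc worms exposed to compound in S medium with bacterial capsules at 21 °C.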
row,SMILES,AC50
1,CCCCCCOc1ccccc1C(N)=O,"2.05 µM [falling, partial curve, poor fit]"
2,CC(C)c1nc(CN(C)C(=O)N[C@@H](CCN2CCOCC2)C(=O)N[C@H](CC[C@H](Cc2ccccc2)NC(=O)OCc2cncs2)Cc2ccccc2)cs1,"25.8 µM [falling, single point]"
3,COC(=O)[C@H]1[C@@H](O)[C@@]2(O)c3c(OC)cc(O[C@@H]4O[C@@H]([C@H](O)CO)CO[C@H]4OC)cc3O[C@@]2(c2ccc(OC)cc2)[C@@H]1c1ccccc1,"18.3 µM [falling, partial curve, poor fit]"
4,CC(C(=O)O)c1ccc(C(=O)c2cccs2)cc1 (stereo unspecified),"0.708 µM [rising, partial curve, poor fit]"
5,Cc1cc(N2CCN([C@@H]3CN[C@H](C(=O)N4CCSC4)C3)CC2)n(-c2ccccc2)n1,"0.0816 µM [falling, partial curve, poor fit]"
6,CCOC(=O)c1c(C)sc(-c2c(-c3ccc(OC)c(F)c3)[nH]c3c2c(=O)[nH]c(=O)n3C)c1O,"0.0816 µM [falling, full curve, poor fit]"
7,CC#Cc1cncc(-c2ccc3c(c2)[C@@]2(N=C(C)C(N)=N2)C2(CCC(OC)CC2)C3)c1 (stereo partly specified),"36.5 µM [falling, single point]"
8,CC(C)=C1C/C=C(\C)CC/C=C(\C)CC1=O,"25.8 µM [falling, single point]"
9,COc1c2c(cc3c1-c1c(cc4c(c1OC)OCO4)CC(C)C(C)C3)OCO2 (stereo unspecified),"4.5 µM [falling, partial curve, poor fit]"
10,O=C(Nc1ncc([N+](=O)[O-])s1)c1ccccc1O,"0.325 µM [falling, full curve, poor fit]"
11,O=C(O)c1ccccn1,"3.25 µM [rising, partial curve, poor fit]"
12,Cc1onc(-c2ccccc2)c1C(=O)N1CCN(c2ccc([N+](=O)[O-])cc2Cl)CC1,"0.325 µM [falling, full curve, poor fit]"
13,Cc1ccc(CCCO)c(NCc2ccc3nc(NCCCN4CCOCC4)n(Cc4nc(C)ccc4O)c3c2)c1,"12.9 µM [rising, partial curve, poor fit]"

# Same assay, conditions: C. elegans worm area imaging, day 7; measured here: worm number, day 3
row,SMILES,AC50
1,CC12CCC(CC1=O)C2(C)C (stereo unspecified),"20.5 µM [falling, single point]"
2,CC(C)C(=O)OC[C@@]1(N=[N+]=[N-])O[C@@H](n2ccc(N)nc2=O)[C@H](OC(=O)C(C)C)[C@@H]1OC(=O)C(C)C,"1.03 µM [falling, full curve, poor fit]"
3,CCCCCCOc1ccccc1C(N)=O,"0.29 µM [falling, full curve, poor fit]"
4,CC1(C)O[C@H]2CC(=O)OC[C@]23[C@H]2CC[C@@]4(C)[C@H](c5ccoc5)OC(=O)[C@H]5O[C@]54[C@]2(C)C(=O)C[C@@H]13,"7.27 µM [falling, partial curve, poor fit]"
5,OCCc1ccccc1,"0.816 µM [falling, full curve, poor fit]"
6,N[C@@H](CC(=O)N1CCn2c(nnc2C(F)(F)F)C1)Cc1cc(F)c(F)cc1F,"29 µM [rising, single point]"
7,COC(=O)[C@H](CCSC)NC(=O)c1ccc(NC[C@@H](N)CS)cc1-c1ccccc1,"2.9 µM [rising, full curve, poor fit]"
8,Cc1cc(C)c(Nc2ccnc(Nc3ccc(C#N)cc3)n2)c(C)c1,"5.15 µM [falling, partial curve, poor fit]"
9,CCCCCCCCCCCCCCCCn1cc[n+](Cc2ccccc2)c1C,"0.23 µM [falling, partial curve, poor fit]"
10,CCOC(=O)c1c(C)sc(-c2c(-c3ccc(OC)c(F)c3)[nH]c3c2c(=O)[nH]c(=O)n3C)c1O,"5.78 µM [rising, full curve, poor fit]"
11,CC#Cc1cncc(-c2ccc3c(c2)[C@@]2(N=C(C)C(N)=N2)C2(CCC(OC)CC2)C3)c1 (stereo partly specified),"4.59 µM [falling, partial curve, poor fit]"
12,O=C(NCC1(c2nc(-c3ccccc3)cs2)CCOCC1)c1cccc(-c2noc(C(F)(F)F)n2)c1,"14.5 µM [falling, partial curve, poor fit]"
13,CC(C)Nc1nc2cc(Cl)c(Cl)cc2n1[C@H]1O[C@@H](CO)[C@H](O)[C@@H]1O,"25.8 µM [falling, single point]"
14,CC(C)(C)NC(=O)N[C@H](C(=O)N1C[C@H]2[C@@H]([C@H]1C(=O)NC(CC1CCC1)C(=O)C(N)=O)C2(C)C)C(C)(C)C (stereo partly specified),"29 µM [rising, single point]"
15,CC(=O)OC(C)(C)CCC(=O)[C@](C)(O)C1[C@H](O)C[C@@]2(C)C3CC=C4C(C[C@H](O)[C@@H](O)C4(C)C)[C@]3(C)C(=O)C[C@]12C (stereo partly specified),"0.258 µM [falling, partial curve, poor fit]"
16,O=c1c(O[C@@H]2O[C@H](CO)[C@H](O)[C@H](O)[C@H]2O)c(-c2ccc(O)c(O)c2)oc2cc(O)cc(O)c12,"25.8 µM [falling, single point]"
17,C[C@@]1(O)[C@H](O)[C@@H](CO)O[C@H]1n1ccc(N)nc1=O,"31.6 µM [falling, single point]"
18,CCN(CC)Cc1ccc(C(=O)N(CCc2ccccc2OC)[C@@H]2CCNC2)cc1,"36.5 µM [rising, single point]"
19,O=C(O[C@@H]1Cc2c(O)cc(O)cc2O[C@@H]1c1cc(O)c(O)c(O)c1)c1cc(O)c(O)c(O)c1,"0.0916 µM [rising, full curve, poor fit]"
20,O=C1c2cccc(O)c2C(=O)c2c(O)cc(CO)cc21,"0.728 µM [falling, full curve, poor fit]"
21,O=P(O)(O)C(O)(Cn1ccnc1)P(=O)(O)O,"0.0092 µM [falling, full curve, poor fit]"
22,O=c1cc(-c2ccc(O)cc2)oc2cc(O)c(O)c(O)c12,"20.5 µM [rising, partial curve, poor fit]"
23,Nc1ccn([C@@H]2CS[C@H](CO)O2)c(=O)n1,"36.5 µM [falling, single point]"
